Assay results published in PubChem BioAssay AID2568 (National Center for Advancing Translational Sciences (NCATS), 2010).
The inconclusive results got no clear call from the source; some entries with a clear call stand among them for comparison. Potencies of inconclusive entries are doubtful fits and often do not repeat. Active and inactive are the calls of the source. Calls follow the shape of the full dose curve.

The chains behind the UniProt entries cited, without tags or fusion partners. Where a name states a change or a piece, a line headed by the entry shows the natural chain unless it says otherwise.
UniProt Q6W5P4: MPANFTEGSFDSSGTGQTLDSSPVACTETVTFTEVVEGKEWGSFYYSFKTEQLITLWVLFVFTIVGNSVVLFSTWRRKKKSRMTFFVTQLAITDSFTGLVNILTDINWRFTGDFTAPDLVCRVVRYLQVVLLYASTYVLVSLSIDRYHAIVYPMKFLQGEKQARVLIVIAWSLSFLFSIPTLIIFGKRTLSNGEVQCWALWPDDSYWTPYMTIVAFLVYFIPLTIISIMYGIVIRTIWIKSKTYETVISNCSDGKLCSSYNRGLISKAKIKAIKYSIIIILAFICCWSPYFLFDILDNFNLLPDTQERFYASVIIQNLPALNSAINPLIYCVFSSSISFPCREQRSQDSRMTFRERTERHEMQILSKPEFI

Biological target: Neuropeptide S receptor (Homo sapiens) (UniProt Q6W5P4)
Assay: Confirmation Concentration-Response Assay for Antagonists of the Neuropeptide S Receptor: cAMP Signal Transduction, SAR for Probe
Settings: CHO-NPSR cells, cAMP TR-FRET, antagonist mode
Description: NIH Chemical Genomics Center [NCGC] NIH Molecular Libraries Probe Production centers Network [MLPCN] MLPCN Grant: X01-DA026210-01 Assay Submitter (PI): Heilig, Markus Alexander NCGC Assay Overview: Neuropeptide S receptor (NPSR), previously known as GPR154, is a recently de-orphanized G protein coupled receptor. Its endogenous ligand is the 20 amino acids peptide Neuropeptide S (NPS). […] NPS and its receptor are found in various tissues. Specifically they are highly expressed in brain areas that have been implicated in modulation of arousal, stress and anxiety. Central administration of NPS in mice produces an unusual profile of activity by inducing wakefulness and arousal, while at the same time suppressing anxiety. Therefore, NPSR may represent a novel drug target for the treatment of sleep and anxiety disorders. To identify NPSR antagonists, we developed a cell-based cAMP assay. NPS can stimulate the production of cAMP in Chinese hamster ovary cells stably expressing NPS receptor. This change in intracellular cAMP level can be detected by a homogeneous LANCE cAMP assay based on the TR-FRET (time resolved fluorescence resonance energy transfer) between a europium-labeled cAMP tracer complex and a cAMP-specific antibody labeled with Alexa Fluor 647. The europium-labeled cAMP tracer complex is formed by the tight interaction between Biotin-cAMP (b-cAMP) and streptavidin labeled with Europium-W8044 chelate (Eu-SA). Light pulse at 320 nm excites the europium of the cAMP tracer and the energy emitted is transferred to the Alexa molecule bound to the cAMP antibody, generating a TR-FRET signal at 665 nm. Residual energy from the europium will produce a light at 620 nm. The native unlabeled cAMP from cell lysates competes with the europium-cAMP tracer for antibody binding and reversely reduces the emission signal of Alexa by interrupting FRET between the two labeled molecules. Both emission signals from the FRET donor (620 nm) and the acceptor (665 nm) can be detected by a plate reader in the TRF mode. Expression of result in fluorescence ratio (665 nm/620 nm) helps to normalize differences due to cell density and reagent dispensing. This assay was successfully optimized to a 1536-well plate format. Select compounds from the primary screen (AID 1461) were chosen for confirmation based on potency, efficacy, SAR, and activity across other assays in PubChem and at NCGC. Other compounds are analogs of active compounds from the primary screen.
NCGC Assay Protocol Summary: A Chinese hamster ovary (CHO) cell line stably expressing the NPS receptor (CHO-NPSR) was obtained from Dr. Heilig lab at NIAAA and maintained in F-12 Kaighn's media (Invitrogen, Carlsbad, CA, 21127) supplemented with 10 % FBS, 100 units/ml penicillin, 100 ug/ml streptomycin and 250 ug/ml geneticin at 37C, 5% CO2 in a humidified atmosphere. Before the assay, aliquots of cells were frozen and stored at -135C. The assay was performed in 1536-well format. Data are reported for both the ratio of the two emission wavelengths, and also for the component 'donor' channel, Em2=620. […] IC50 values were determined from concentration-response data modeled with the standard Hill equation. NPS 1536-well assay protocol: (1) Fresh or frozen CHO-NPSR cells were suspended in F-12 Kaighn's media supplemented with 10 % FBS, 100 units/ml penicillin and 100 ug/ml streptomycin. Cells were plated at 4 ul/well (1200 cells) to white, tissue culture treated 1536-well plates, and then cultured at 37C, 5 % CO2 for 16 to 30 hours. (2) Add 23 nl/well of compound in DMSO solution. The final titration for each compound was between 0.6 nM and 46 uM. (3) Add 1 ul of stimulation reagent (1X HBSS buffer, 5 mM HEPES, 0.1% BSA, 500 uM RO-201724 (Sigma-Aldrich, B8279), 1.5% Alexa 647-labeled anti-cAMP antibody (from Perkin Elmer), 100 nM NPS) (4) Incubation at 37C, 5 % CO2 for 60 min. (5) Add 1 ul/well detection reagent. […]

Compound	Potency
Cc1c(P(=O)(c2ccccc2)c2ccccc2)c2ccccc2n1C	inactive
COc1cccc(C2c3c(ncn(-c4cccc(F)c4)c3=N)Oc3ccc4ccccc4c32)c1 (configuration not stated)	active: 3.87 µM
COc1cccc(C2c3c(ncn(-c4cccc(Br)c4)c3=N)Oc3ccc4ccccc4c32)c1 (configuration not stated)	active: 19.4 µM
COc1ccc(C2c3c(N)nc(CCCc4ccccc4)nc3Oc3ccc4ccccc4c32)cc1OC (configuration not stated)	inconclusive: 77.2 µM [antagonist, partial curve, poor fit]
COc1ccc(C2c3c(nc(CCCc4ccccc4)[nH]c3=O)Oc3ccc4ccccc4c32)cc1OC (configuration not stated)	inactive
COc1ccc(C2c3c(n(CCc4ccccc4)cnc3=N)Oc3ccc4ccccc4c32)cc1OC (configuration not stated)	inconclusive: 1940 µM [antagonist, partial curve, poor fit]
COc1cccc(C2c3c(ncn(-c4cccc(OC)c4)c3=N)Oc3ccc4ccccc4c32)c1 (configuration not stated)	active: 9.72 µM
O=P(c1ccccc1)(c1ccccc1)c1cnc2ccccn12	inactive
COc1ccc(C2c3c(nc(C)[nH]c3=O)Oc3ccc4ccccc4c32)cc1OC (configuration not stated)	inconclusive: 244 µM [antagonist, partial curve, poor fit]
Cc1nc2ccccn2c1C(O)(c1ccccc1)c1ccccc1	inconclusive: 79.1 µM [antagonist, single point]
COc1ccc(C2c3ccc(OCc4ccccc4)cc3Oc3ncn(CCN4CCOCC4)c(=N)c32)cc1OC (configuration not stated)	inconclusive: 122 µM [antagonist, partial curve, poor fit]
O=C(NCc1ccc(F)cc1)n1cc(P(=S)(c2ccccc2)c2ccccc2)c2ccccc21	inconclusive: 99.6 µM [antagonist, partial curve, poor fit]
COc1cccc(C2c3c(ncn(-c4ccccc4C(C)(C)C)c3=N)Oc3ccc4ccccc4c32)c1 (configuration not stated)	active: 12.2 µM
COc1ccc(C2c3c(N)nc(Cc4ccccc4)nc3Oc3ccc4ccccc4c32)cc1OC (configuration not stated)	inconclusive: 77.2 µM [antagonist, partial curve, poor fit]
O=C1OC(c2ccccc2)(c2ccccc2)N2CCN(C(=O)NCc3ccc(F)cc3)CC12 (configuration not stated)	active: 1.94 µM
Cc1c(P(=S)(c2ccccc2)c2ccccc2)c2ccccc2n1C/C=C/c1ccccc1	inconclusive: 194 µM [antagonist, partial curve, poor fit]
COc1cccc(C2c3c(ncn(-c4ccccc4C#N)c3=N)Oc3ccc4ccccc4c32)c1 (configuration not stated)	inconclusive: 122 µM [antagonist, partial curve, poor fit]

A draw from above in order of molar mass, falling.
Compound	Potency
COc1ccc(C2c3ccc(OCc4ccccc4)cc3Oc3ncn(CCN4CCOCC4)c(=N)c32)cc1OC (configuration not stated)	inconclusive: 122 µM [antagonist, partial curve, poor fit]
Cc1c(P(=S)(c2ccccc2)c2ccccc2)c2ccccc2n1C/C=C/c1ccccc1	inconclusive: 194 µM [antagonist, partial curve, poor fit]
COc1cccc(C2c3c(ncn(-c4cccc(OC)c4)c3=N)Oc3ccc4ccccc4c32)c1 (configuration not stated)	active: 9.72 µM
